Source: PubChem BioAssay AID1159584 (Peter MacCallum Cancer Centre, 2016)

- Test: 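Genes whose loss is lethal only together with E-cadherin loss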 (primary screen)
- Cells: human MCF10A breast epithelial cells, parental and CDH1-null
- Knock-down reagent: siRNA against human genes
- Measured: 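ATP luminescence (CellTiter-Glo) viability per line relative to mean mock wells over all plates, and the ratio of CDH1-null to parental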
- Scale: CDH1-null / parental viability ratio: higher = CDH1-null cells survive relatively better than parental; CDH1-null viability vs mock: higher = more viable CDH1-null cells
The whole screen tested about 18,000 reagents; below is a part drawn at random. Further read-outs or replicates are left out here. The record does not give: the amount of reagent, the time to read-out.

gene	CDH1-null / parental viability ratio	CDH1-null viability vs mock (fraction of mock)
ZNF827	1.14	0.97
RHOQ	1.11	1
LSMEM1	0.89	0.84
LDHA	1.01	0.94
ADRA2C	1.58	0.9
JMJD8	0.86	0.64
RBAK	1.12	1.17
RTL9	1.01	0.75
CCDC144NL	0.91	0.74
CLDN2	1.16	1.04
PXMP2	1.19	0.74
RBM47	0.97	0.56
SNX2	0.93	0.8
TMEM74B	0.85	0.72
TTC1	1.29	0.8
SLC9A1	1.17	0.84
EIF4G2	1.06	0.7
DMBT1	1.34	1.02
GFOD2	0.78	0.52
POMT2	0.79	0.7
ZNF460	0.9	0.72
KIF2B	1.12	0.93
RNASE4	1.07	0.92
APOA2	1.12	0.57
MOB1B	1.65	0.94
EXD3	1.16	0.88
SULT1C2	0.93	0.5
ING2	0.86	0.76
